Data published in paper PMC6265451.

Molecular target: T1, Pta1-TAPS (S. cerevisiae) (UniProt Q01329)
T1 sequence: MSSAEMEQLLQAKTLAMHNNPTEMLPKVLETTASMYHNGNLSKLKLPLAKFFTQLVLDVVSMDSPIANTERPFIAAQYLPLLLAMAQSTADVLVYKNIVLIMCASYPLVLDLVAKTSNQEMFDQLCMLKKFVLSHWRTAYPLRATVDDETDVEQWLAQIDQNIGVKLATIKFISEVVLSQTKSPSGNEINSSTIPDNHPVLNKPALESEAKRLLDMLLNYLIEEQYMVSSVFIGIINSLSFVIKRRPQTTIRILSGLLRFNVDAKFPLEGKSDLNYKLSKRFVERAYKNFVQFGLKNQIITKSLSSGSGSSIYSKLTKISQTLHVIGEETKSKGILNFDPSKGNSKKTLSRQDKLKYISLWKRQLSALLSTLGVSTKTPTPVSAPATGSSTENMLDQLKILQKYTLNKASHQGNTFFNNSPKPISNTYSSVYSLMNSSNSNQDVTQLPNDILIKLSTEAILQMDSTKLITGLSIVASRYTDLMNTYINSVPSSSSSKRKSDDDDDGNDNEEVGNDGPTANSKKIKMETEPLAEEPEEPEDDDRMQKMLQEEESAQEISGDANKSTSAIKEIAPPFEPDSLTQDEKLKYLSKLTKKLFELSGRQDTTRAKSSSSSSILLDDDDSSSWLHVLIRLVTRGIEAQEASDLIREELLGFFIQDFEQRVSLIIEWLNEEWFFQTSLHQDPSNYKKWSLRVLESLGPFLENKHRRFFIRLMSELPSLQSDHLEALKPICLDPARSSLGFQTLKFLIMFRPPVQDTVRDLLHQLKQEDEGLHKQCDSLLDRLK
Assay: affinity purification with mass spectrometry; TAPS tandem affinity purification from tagged yeast: IgG sepharose, TEV protease elution, Streptactin resin, desthiobiotin elution; SDS-PAGE stained with SYPRO Ruby, excised bands identified by tryptic-digest mass spectrometry

B3: Pfs2 (protein, UniProt P42841 1-465)
chain: MDGHNQNQYQNQNQIQQSQQPPLKKYVTQRRSVDVSSPYINLYYNRRHGLPNLVVEPETSYTIDIMPPNAYRGRDRVINLPSKFTHLSSNKVKHVIPAIQWTPEGRRLVVATYSGEFSLWNASSFTFETLMQAHDSAVTTMKYSHDSDWMISGDADGMIKIWQPNFSMVKEIDAAHTESIRDMAFSSNDSKFVTCSDDNILKIWNFSNGKQERVLSGHHWDVKSCDWHPEMGLIASASKDNLVKLWDPRSGNCISSILKFKHTVLKTRFQPTKGNLLMAISKDKSCRVFDIRYSMKELMCVRDETDYMTLEWHPINESMFTLACYDGSLKHFDLLQNLNEPILTIPYAHDKCITSLSYNPVGHIFATAAKDRTIRFWTRARPIDPNAYDDPTYNNKKINGWFFGINNDINAVREKSEFGAAPPPPATLEPHALPNMNGFINKKPRQEIPGIDSNIKSSTLPGLSI
- binding: binds

B4: Mpe1 (protein, UniProt P35728 1-441)
chain: MSSTIFYRFKSQRNTSRILFDGTGLTVFDLKREIIQENKLGDGTDFQLKIYNPDTEEEYDDDAFVIPRSTSVIVKRSPAIKSFSVHSRLKGNVGAAALGNATRYVTGRPRVLQKRQHTATTTANVSGTTEEERIASMFATQENQWEQTQEEMSAATPVFFKSQTNKNSAQENEGPPPPGYMCYRCGGRDHWIKNCPTNSDPNFEGKRIRRTTGIPKKFLKSIEIDPETMTPEEMAQRKIMITDEGKFVVQVEDKQSWEDYQRKRENRQIDGDETIWRKGHFKDLPDDLKCPLTGGLLRQPVKTSKCCNIDFSKEALENALVESDFVCPNCETRDILLDSLVPDQDKEKEVETFLKKQEELHGSSKDGNQPETKKMKLMDPTGTAGLNNNTSLPTSVNNGGTPVPPVPLPFGIPPFPMFPMPFMPPTATITNPHQADASPKK
- binding: binds

B5: Fip1 (protein, UniProt P45976 1-327)
chain: MSSSEDEDDKFLYGSDSELALPSSKRSRDDEADAGASSNPDIVKRQKFDSPVEETPATARDDRSDEDIYSDSSDDDSDSDLEVIISLGPDPTRLDAKLLDSYSTAATSSSKDVISVATDVSNTITKTSDERLITEGEANQGVTATTVKATESDGNVPKAMTGSIDLDKEGIFDSVGITTIDPEVLKEKPWRQPGANLSDYFNYGFNEFTWMEYLHRQEKLQQDYNPRRILMGLLSLQQQGKLNSANDTDSNLGNIIDNNNNVNNANMSNLNSNMGNSMSGTPNPPAPPMHPSFPPLPMFGSFPPFPMPGMMPPMNQQPNQNQNQNSK
- binding: binds

B6: Cft2 (protein, UniProt Q12102 1-859)
chain: MTYKYNCCDDGSGTTVGSVVRFDNVTLLIDPGWNPSKVSYEQCIKYWEKVIPEIDVIILSQPTIECLGAHSLLYYNFTSHFISRIQVYATLPVINLGRVSTIDSYASAGVIGPYDTNKLDLEDIEISFDHIVPLKYSQLVDLRSRYDGLTLLAYNAGVCPGGSIWCISTYSEKLVYAKRWNHTRDNILNAASILDATGKPLSTLMRPSAIITTLDRFGSSQPFKKRSKIFKDTLKKGLSSDGSVIIPVDMSGKFLDLFTQVHELLFESTKINAHTQVPVLILSYARGRTLTYAKSMLEWLSPSLLKTWENRNNTSPFEIGSRIKIIAPNELSKYPGSKICFVSEVGALINEVIIKVGNSEKTTLILTKPSFECASSLDKILEIVEQDERNWKTFPEDGKSFLCDNYISIDTIKEEPLSKEETEAFKVQLKEKKRDRNKKILLVKRESKKLANGNAIIDDTNGERAMRNQDILVENVNGVPPIDHIMGGDEDDDEEEENDNLLNLLKDNSEKSAAKKNTEVPVDIIIQPSAASKHKMFPFNPAKIKKDDYGTVVDFTMFLPDDSDNVNQNSRKRPLKDGAKTTSPVNEEDNKNEEEDGYNMSDPISKRSKHRASRYSGFSGTGEAENFDNLDYLKIDKTLSKRTISTVNVQLKCSVVILNLQSLVDQRSASIIWPSLKSRKIVLSAPKQIQNEEITAKLIKKNIEVVNMPLNKIVEFSTTIKTLDISIDSNLDNLLKWQRISDSYTVATVVGRLVKESLPQVNNHQKTASRSKLVLKPLHGSSRSHKTGALSIGDVRLAQLKKLLTEKNYIAEFKGEGTLVINEKVAVRKINDAETIIDGTPSELFDTVKKLVTDMLAKI
- binding: binds

B8: Ref2 (protein, UniProt P42073 1-533)
chain: MSAPVPQLVNISHALQASTIQQIRLDMVDFNKDCKLSSIQLARIDKYIDSLQAALNQFTKDNLHIERKEKNVTEADIQLYSGLKSMYLDYLNQLIKLKHEKQHHSTPPIANDVSLDFFVNQLPKFSPEERKNYIDNLILNKNSHNRLSKMDGLVDAVINLCVLDTSVAENVRSYMKLLDTLGFQKGSNSTGTKANLKKKLASSKAKIKDSEKEKEKEKDKSKVKMKTKLKPSPLLNNDDKNSSPSPTASTSSMKKLKSGLFNKNEAKSTESLPTSSKKKLSFSKYLNKDDADMTKLGTKRSIDVDFKVNPEASTVASNIISSSTSGSSTTTVATPASSEEPLKKKTKISVQDSNVQSILRNGKPKKARISSIKFLDDSQLIKVYGDDLPNQGLQVSPTQLKKILKPFKEGEPKEIILFEDMSIKLKPLDLMFLKNTNSDDYMDISETKGGPIHCETRTPLIYRKNFNHFNPDLNKRPPREPIEFDLNGNTNSTPTIAKAFGKNSLLLRKDRGGLPYKHVPIVKRNKYPPRPVH
- binding: binds

Second part, the binder after the results:

- binding: binds
B1: Ysh1 (enzyme, UniProt Q06224 1-779)
chain: MERTNTTTFKFFSLGGSNEVGRSCHILQYKGKTVMLDAGIHPAYQGLASLPFYDEFDLSKVDILLISHFHLDHAASLPYVMQRTNFQGRVFMTHPTKAIYRWLLRDFVRVTSIGSSSSSMGTKDEGLFSDEDLVDSFDKIETVDYHSTVDVNGIKFTAFHAGHVLGAAMFQIEIAGLRVLFTGDYSREVDRHLNSAEVPPLSSNVLIVESTFGTATHEPRLNRERKLTQLIHSTVMRGGRVLLPVFALGRAQEIMLILDEYWSQHADELGGGQVPIFYASNLAKKCMSVFQTYVNMMNDDIRKKFRDSQTNPFIFKNISYLRNLEDFQDFGPSVMLASPGMLQSGLSRDLLERWCPEDKNLVLITGYSIEGTMAKFIMLEPDTIPSINNPEITIPRRCQVEEISFAAHVDFQENLEFIEKISAPNIILVHGEANPMGRLKSALLSNFASLKGTDNEVHVFNPRNCVEVDLEFQGVKVAKAVGNIVNEIYKEENVEIKEEIAAKIEPIKEENEDNLDSQAEKGLVDEEEHKDIVVSGILVSDDKNFELDFLSLSDLREHHPDLSTTILRERQSVRVNCKKELIYWHILQMFGEAEVLQDDDRVTNQEPKVKEESKDNLTNTGKLILQIMGDIKLTIVNTLAVVEWTQDLMNDTVADSIIAILMNVDSAPASVKLSSHSCDDHDHNNVQSNAQGKIDEVERVKQISRLFKEQFGDCFTLFLNKDEYASNKEETITGVVTIGKSTAKIDFNNMKILECNSNPLKGRVESLLNIGGNLVTPLC

- binding: binds
B2: Syc1 (protein, UniProt Q08553 1-188)
chain: MDLPKDKSDRTHQRINLNNSGTDRTNDLYLHIVQTFGCIETTATENATKLLMLGDVEVEISASSVSIEWTQKSMISQTIADSIVIMIIGLCASDKNVLSESELKERNHNVWKIQELQNLFREQFGDSFSIDEGIGKKENVKNGSVTIGKSKATIDFSTMKLIDCNSNPLKGRVESILSIGQKLTTPLC

- binding: binds
B7: Yth1 (protein, UniProt Q06102 1-208)
chain: MSLIHPDTAKYPFKFEPFLRQEYSFSLDPDRPICEFYNSREGPKSCPRGPLCPKKHVLPIFQNKIVCRHWLRGLCKKNDQCEYLHEYNLRKMPECVFFSKNGYCTQSPDCQYLHIDPASKIPKCENYEMGFCPLGSSCPRRHIKKVFCQRYMTGFCPLGKDECDMEHPQFIIPDEGSKLRIKRDDEINTRKMDEEKERRLNAIINGEV

These are yes or no findings as the source states them, for the method shown. Binding seen in cells or lysates may run through a third protein. A yes stands for co-enrichment or nearness to the bait. Other partners may have been found. One block for each binder: values may come before it.
